Results: publication PMC6544120 (Chemical Science, 2019)

Experiment: general procedure: Fmoc solid-phase peptide synthesis; 2-Chlorotrityl resin (1.1 mmol g-1 loading capacity); HCTU; DMTMM for cyclisation
Details: late stage modification step

## Cyclo(L-Trp–D-Leu–L-Lys–D-Leu–L-Trp–D-Leu–L-Lys–D-Leu)
  step yield: 95%
